{"source": "patent US20130078216A1", "about": "(published 2013)", "binders": {"B1": {"name": "DOM26m-33 (protein, not shown: small tags and cut ends)", "VH": "EVQLLESGGGLVQPGGSLRLSCAASGFTFAKYDMIWVRQAPGKGLEWVSGINHSGSRTYYADSVKGRFTISRDNSKNMLYLQMNSLRAEDTAVYYCAKSGSSFDYWGQGTLVTVSS"}, "B2": {"name": "DOM26h-161 (protein, not shown: small tags and cut ends)", "VL": "DIQMTQSPSSLSASVGDRVTITCRASQAIGRWLLWYQQKPGKAPKLLIYAASRLQSGVPSRFSGSGSGTDFTLTISSLQPEDFATYYCQQAYSLPPTFGQGTKVEIKR"}, "B3": {"name": "DOM26h-162 (protein, not shown: small tags and cut ends)", "VL": "DIQMTQSPSSLSASVGDRVTITCRASMSIDESLWWYQQKPGKAPKLLIRGGSGLQSGVPSRFSGSGSGTDFTLTISSLQPEDFATYYCGQAARRPYTFGQGTKVEIKR"}, "B4": {"name": "DOM26h-163 (protein, not shown: small tags and cut ends)", "VL": "B3 VL with M27H, S28Y, D30G, E31N, S32E, G50R, A92R, R93H, K103R"}, "B5": {"name": "DOM26h-164 (protein, not shown: small tags and cut ends)", "VL": "DIQMTQSPSSLSASVGDRVTITCRASSNIGRSLVWYQQKPGKAPKLLIAGGSLLQSGVPSRFSGSGSGTDFTLTISSLQPEDFATYYCGQYAEEPFTFGQGTRVEIKR"}, "B6": {"name": "DOM26h-166 (protein, not shown: small tags and cut ends)", "VL": "B3 VL with M27S, S28Y, D30G, E31G, S32E, R49S, G51T, R93K, Y96F"}, "B7": {"name": "DOM26h-165 (protein, not shown: small tags and cut ends)", "VL": "DIQMTQSPSSLSASVGDRVTITCRASVKIGERLWWYQQKPGEAPKLLIRDASLLQSGVPSRFSGSGSGTDFTLTISSLQPEDFATYYCGQSWMRPYTFGQGTKVEIKR"}, "B8": {"name": "DOM26h-167 (protein, not shown: small tags and cut ends)", "VL": "B5 VL with N28W, G30N, R31S, S32D, K42E, A92L, F96Y, R103K, I106V"}, "B9": {"name": "DOM26h-25 (protein, not shown: small tags and cut ends)", "VL": "B3 VL with M27G, S28D, D30G, E31H, S32A, G53A, A91S, A92H, R93V, Y96F"}, "B10": {"name": "DOM26h-34 (protein, not shown: small tags and cut ends)", "VL": "DIQMTQSPSSLSASVGDRVTITCQASKNIGERLVWYQQKPGKAPKLLIGFASLLQSGVPSRFSGSGSGTDFTLTISSLQPEDFATYYCGQYRWVPATFGQGTKVEIKR"}, "B11": {"name": "DOM26h-61 (other, not shown: small tags and cut ends)", "VH": "EVQLLESGGGLVQPGGSLRLSCAASGFTFSTYPMHWARQAPGKGLEWVSSISPSGDSTYYADSVKGRFTISRDNSKNTLYLQMNSLRAEDTAVYYCAKNALRFDYWGQGTLVTVSS", "notes": "human VH domain antibody (dAb); also called VH dAb DOM26h-61"}, "B12": {"name": "DOM26h-99 (protein, not shown: small tags and cut ends)", "VH": "EVQLLESGGGLVQPGGSLRLSCAASGFTFKPYAMHWVRQAPGKGLEWVSSISSTGLSTYYADSVKGRFTISRDNSKNTLYLQMNSLRAEDTAVYYCAKDASRFRQPFDYWGQGTLVTVSS"}, "B13": {"name": "DOM26h-104 (protein, not shown: small tags and cut ends)", "VH": "EVQLLESGGGLVQPGGSLRLSCAASGFTFPKYGMAWVRQAPGKGLEWVSRIGATGSETYYADSVKGRFTISRDNSKNTLYLQMNSLRAEDTAVYYCAKHRGTAHSSFFDYWGQGTLVTVSS"}, "B14": {"name": "DOM26h-110 (protein, not shown: small tags and cut ends)", "VH": "EVQLLESGGGLVQPGGSLRLSCAASGFTFSANGMHWVRQAPGKGLEWVSVISATGDQTYYADSVKGRFTISRDNSKNTLYLQMNSLRAEDTAVYYCAKGYDRRHRKFDYWGQGTLVTVSS"}, "B15": {"name": "DOM26h-159 (protein, not shown: small tags and cut ends)", "VH": "EVQLLESGGGLVQPGGSLRLSCAASGFTFADYSMYWVRQAPGKGLEWVSDISPSGSMTYYADSVKGRFTISRDNSKNTLYLQMNSLRAEDTAVYYCAKGLPGQNMHVGFDYWGQGTLVTVSS"}, "B16": {"name": "DOM26m-7 (other, not shown: small tags and cut ends)", "VH": "EVQLLESGGGLVQPGGSLRLSCAASGFTFDDYEMGWVRQAPGKGLEWVSLISAQGRVTYYADSVKGRFTISRDNSKNTLYLQMNSLRAEDTAVYYCAKNSPSYLLNFDYWGQGTLVTVSS", "notes": "human VH domain antibody (dAb) selected on mouse ASGPR H1"}, "B17": {"name": "DOM26m-20 (other, not shown: small tags and cut ends)", "VL": "DIQMTQSPSSLSASVGDRVTITCRASKYIGSDLYWYQQKPGKAPKLLIGGGSRLQSGVSSRFSGSGSGTDFTLTISSLQPEDFATYYCGQKWARPLTFGQGTKVEIKR", "notes": "human Vκ domain antibody (dAb) selected on mouse ASGPR H1; also called Vκ dAb DOM26m-20"}, "B18": {"name": "DOM26m-29 (other, not shown: small tags and cut ends)", "VH": "EVQLLESGGGLVQPGGSLRLSCAASGFTFEDSGMIWARQAPGKGLEWVSGIASEGSTTYYADSVKGRFTISRDNSKNTLYLQMNSLRAEDTAVYYCAKSGLSFDYWGQGTLVTVSS", "notes": "as for B16"}, "B19": {"name": "DOM26m-50 (other, not shown: small tags and cut ends)", "VL": "DIQMTQSPSSLSASVGDRVTITCRASISIYEHLNWYQQKPGKAPTLLIWDSSGLQSGVPSRFSGSGSGTDFTLTISSLQPEDFATYYCVQHHSHPPTFGQGTKVEIKR", "notes": "human Vκ domain antibody (dAb) selected on mouse ASGPR H1"}, "B20": {"name": "DOM26m-52 (protein, not shown: small tags and cut ends)", "VH": "EVQLLESGGGLVQPGGSLRLSCAASGFTFREHPMSWVRQAPGKGLEWVSSISKHGSETYYADSVKGRFTISRDNSKNTLYLQMNSLRAEDTAVYYCVKSVREFDYWGQGTLVTVSS"}, "B21": {"name": "DOM26m-54 (other, not shown: small tags and cut ends)", "VL": "B5 VL with S27L, G30D, R31T, S32D, G51W, L53G, Y91F, E93R, R103K", "notes": "as for B19"}, "B22": {"name": "DOM26m-58 (other, not shown: small tags and cut ends)", "VL": "DIQMTQSPSSLSASVGDRVTITCRASQPIRNALTWYQQKPGKAPKLLIYRTSHLQSGVPSRFSGSGSGTDFTLTISSLQPEDFATYYCQQTWTMPLTFGQGTKVEIKR", "notes": "as for B19"}}, "note": "Residue numbers refer to the chain shown, from its start. Results are given in words; binding and its absence hold for the method and conditions named. Some results given as binding are weak or reduced against the parent protein; the word gives no strength.", "data": [{"biological_target": "T1, mouse ASGPR on the murine liver cell line Hepa1c1c7 (and on mouse liver in vivo) (mouse) (UniProt P34927)", "T1 sequence (looked up)": "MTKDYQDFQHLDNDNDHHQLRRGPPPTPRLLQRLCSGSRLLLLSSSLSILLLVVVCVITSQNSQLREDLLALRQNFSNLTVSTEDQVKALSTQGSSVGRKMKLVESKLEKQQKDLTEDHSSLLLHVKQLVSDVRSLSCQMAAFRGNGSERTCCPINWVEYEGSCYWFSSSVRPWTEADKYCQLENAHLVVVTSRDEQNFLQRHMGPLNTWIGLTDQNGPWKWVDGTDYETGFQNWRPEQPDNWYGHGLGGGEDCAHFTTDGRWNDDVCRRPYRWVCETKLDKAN", "experiment": "immunofluorescence confocal microscopy, 5 µM FLAG-tagged dAb on Hepa1c1c7 cells, anti-FLAG M2 Cy3", "values": [{"binder": "B1", "binding": "binds"}]}, {"biological_target": "T1, mouse ASGPR on the murine liver cell line Hepa1c1c7 (and on mouse liver in vivo) (mouse)", "experiment": "immunofluorescence confocal microscopy, 5 µM FLAG-tagged dAb on Hepa1c1c7 cells, anti-FLAG M2-Cy3", "values": [{"binder": "B1", "binding": "binds"}]}, {"biological_target": "T2, human ASGPR on the human liver cell line HepG2 (human) (UniProt P07306)", "T2 sequence (looked up)": "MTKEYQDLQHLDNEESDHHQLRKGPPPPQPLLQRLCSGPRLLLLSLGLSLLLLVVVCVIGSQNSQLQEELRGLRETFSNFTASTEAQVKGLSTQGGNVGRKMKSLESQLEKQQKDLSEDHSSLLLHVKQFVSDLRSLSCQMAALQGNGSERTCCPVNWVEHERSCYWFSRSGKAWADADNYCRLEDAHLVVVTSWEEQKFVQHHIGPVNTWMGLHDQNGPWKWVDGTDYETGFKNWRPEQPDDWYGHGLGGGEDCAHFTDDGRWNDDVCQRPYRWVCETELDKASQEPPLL", "experiment": "flow cytometry cell binding assay, FLAG-tagged dAb cross-linked with anti-FLAG M2, HepG2 cells (members in Table 2)", "values": [{"binder": "B2", "binding": "binds"}, {"binder": "B3", "binding": "binds"}, {"binder": "B4", "binding": "binds"}, {"binder": "B5", "binding": "binds"}, {"binder": "B6", "binding": "binds"}, {"binder": "B7", "binding": "binds"}, {"binder": "B8", "binding": "binds"}, {"binder": "B9", "binding": "binds"}, {"binder": "B10", "binding": "binds"}, {"binder": "B11", "binding": "binds"}, {"binder": "B12", "binding": "binds"}, {"binder": "B13", "binding": "binds"}, {"binder": "B14", "binding": "binds"}, {"binder": "B15", "binding": "binds"}]}, {"biological_target": "T1, mouse ASGPR on the murine liver cell line Hepa1c1c7 (and on mouse liver in vivo) (mouse)", "experiment": "flow cytometry cell binding assay, FLAG-tagged dAb cross-linked with anti-FLAG M2, Hepa1c1c7 cells (members in Table 3)", "values": [{"binder": "B16", "binding": "binds"}, {"binder": "B17", "binding": "binds"}, {"binder": "B18", "binding": "binds"}, {"binder": "B1", "binding": "binds"}, {"binder": "B19", "binding": "binds"}, {"binder": "B20", "binding": "binds"}, {"binder": "B21", "binding": "binds"}, {"binder": "B22", "binding": "binds"}]}]}
